T1: STRN4, endogenous (human (endogenous in HEK TER, IMR90)) (UniProt Q9NRL3)
T1 sequence: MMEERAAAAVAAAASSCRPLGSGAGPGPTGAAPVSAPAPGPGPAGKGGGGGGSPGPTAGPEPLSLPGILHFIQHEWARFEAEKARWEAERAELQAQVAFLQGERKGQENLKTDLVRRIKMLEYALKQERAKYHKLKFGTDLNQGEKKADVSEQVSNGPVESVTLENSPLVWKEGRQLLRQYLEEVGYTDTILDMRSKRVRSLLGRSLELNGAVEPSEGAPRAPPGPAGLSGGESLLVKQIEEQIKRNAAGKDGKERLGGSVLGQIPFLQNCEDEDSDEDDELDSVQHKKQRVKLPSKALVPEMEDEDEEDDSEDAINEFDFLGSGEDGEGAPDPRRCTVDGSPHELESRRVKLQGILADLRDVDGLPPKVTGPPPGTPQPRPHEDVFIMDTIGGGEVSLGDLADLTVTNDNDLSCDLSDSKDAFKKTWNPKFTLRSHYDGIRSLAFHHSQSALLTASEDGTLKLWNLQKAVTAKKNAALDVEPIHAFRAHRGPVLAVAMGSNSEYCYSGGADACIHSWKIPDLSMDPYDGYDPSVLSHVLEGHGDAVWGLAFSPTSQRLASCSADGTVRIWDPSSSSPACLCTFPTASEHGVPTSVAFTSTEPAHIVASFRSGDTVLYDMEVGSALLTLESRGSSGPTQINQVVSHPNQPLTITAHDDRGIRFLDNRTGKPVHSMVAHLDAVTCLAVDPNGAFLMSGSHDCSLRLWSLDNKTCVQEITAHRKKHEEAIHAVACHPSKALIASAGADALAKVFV

Sequences of proteins named here, by UniProt entry; tags and fusion partners are left off.
UniProt O95819: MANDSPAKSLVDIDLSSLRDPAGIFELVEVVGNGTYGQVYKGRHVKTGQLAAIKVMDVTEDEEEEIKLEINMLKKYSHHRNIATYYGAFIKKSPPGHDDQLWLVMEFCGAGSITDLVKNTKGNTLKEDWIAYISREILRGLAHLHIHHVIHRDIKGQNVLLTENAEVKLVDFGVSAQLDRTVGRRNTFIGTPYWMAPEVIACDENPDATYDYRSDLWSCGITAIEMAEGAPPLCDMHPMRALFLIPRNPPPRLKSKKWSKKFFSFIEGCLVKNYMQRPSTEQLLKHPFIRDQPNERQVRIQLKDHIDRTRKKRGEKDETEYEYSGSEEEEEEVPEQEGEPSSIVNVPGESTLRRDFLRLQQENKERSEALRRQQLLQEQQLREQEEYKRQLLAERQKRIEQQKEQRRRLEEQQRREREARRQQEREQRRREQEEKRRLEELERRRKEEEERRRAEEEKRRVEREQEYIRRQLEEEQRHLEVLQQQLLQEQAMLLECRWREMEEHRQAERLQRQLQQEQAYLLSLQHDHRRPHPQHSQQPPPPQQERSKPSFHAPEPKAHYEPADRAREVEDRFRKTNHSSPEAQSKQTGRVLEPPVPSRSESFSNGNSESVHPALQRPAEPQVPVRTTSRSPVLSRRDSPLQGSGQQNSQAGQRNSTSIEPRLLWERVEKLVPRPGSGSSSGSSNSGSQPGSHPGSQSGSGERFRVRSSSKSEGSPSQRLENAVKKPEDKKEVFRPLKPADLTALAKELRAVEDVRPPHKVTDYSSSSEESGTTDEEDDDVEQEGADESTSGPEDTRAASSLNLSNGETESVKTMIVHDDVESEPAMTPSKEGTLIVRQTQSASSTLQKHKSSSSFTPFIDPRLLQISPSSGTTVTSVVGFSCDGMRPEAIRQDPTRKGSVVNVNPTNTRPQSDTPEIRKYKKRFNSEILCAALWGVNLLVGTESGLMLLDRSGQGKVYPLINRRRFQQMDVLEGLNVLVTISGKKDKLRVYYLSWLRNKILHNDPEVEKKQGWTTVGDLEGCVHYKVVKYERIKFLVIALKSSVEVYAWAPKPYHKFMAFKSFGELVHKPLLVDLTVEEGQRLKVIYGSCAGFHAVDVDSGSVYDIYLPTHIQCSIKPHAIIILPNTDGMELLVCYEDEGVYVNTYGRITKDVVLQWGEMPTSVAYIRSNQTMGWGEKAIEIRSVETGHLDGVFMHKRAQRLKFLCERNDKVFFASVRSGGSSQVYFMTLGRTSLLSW
UniProt P03081: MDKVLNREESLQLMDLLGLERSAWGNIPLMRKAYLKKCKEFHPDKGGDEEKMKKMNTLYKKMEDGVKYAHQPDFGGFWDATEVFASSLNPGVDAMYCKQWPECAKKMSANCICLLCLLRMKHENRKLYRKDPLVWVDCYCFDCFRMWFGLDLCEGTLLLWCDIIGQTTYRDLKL
UniProt P67775: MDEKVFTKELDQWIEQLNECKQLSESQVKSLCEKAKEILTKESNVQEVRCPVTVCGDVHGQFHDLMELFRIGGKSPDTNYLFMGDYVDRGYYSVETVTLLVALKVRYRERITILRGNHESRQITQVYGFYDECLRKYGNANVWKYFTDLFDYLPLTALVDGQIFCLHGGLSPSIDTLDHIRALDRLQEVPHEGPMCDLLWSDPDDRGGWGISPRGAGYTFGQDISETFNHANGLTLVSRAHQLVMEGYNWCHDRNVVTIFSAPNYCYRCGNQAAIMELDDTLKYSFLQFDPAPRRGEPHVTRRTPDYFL
UniProt P30153: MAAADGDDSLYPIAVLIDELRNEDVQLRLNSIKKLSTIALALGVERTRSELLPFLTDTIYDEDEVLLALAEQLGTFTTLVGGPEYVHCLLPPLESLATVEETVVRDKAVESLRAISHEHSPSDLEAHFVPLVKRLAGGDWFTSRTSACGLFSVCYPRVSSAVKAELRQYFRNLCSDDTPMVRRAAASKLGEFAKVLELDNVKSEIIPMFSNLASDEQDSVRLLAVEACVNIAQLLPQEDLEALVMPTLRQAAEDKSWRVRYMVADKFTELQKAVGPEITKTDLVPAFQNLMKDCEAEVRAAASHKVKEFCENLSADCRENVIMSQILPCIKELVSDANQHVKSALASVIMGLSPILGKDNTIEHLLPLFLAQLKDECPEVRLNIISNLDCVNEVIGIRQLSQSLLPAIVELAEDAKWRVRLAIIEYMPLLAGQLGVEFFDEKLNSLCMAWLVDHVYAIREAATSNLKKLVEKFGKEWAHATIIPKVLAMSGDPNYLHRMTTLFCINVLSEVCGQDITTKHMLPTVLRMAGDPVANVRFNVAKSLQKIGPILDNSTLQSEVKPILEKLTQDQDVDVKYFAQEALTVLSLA

B1: SLMAP, endogenous (protein, UniProt Q14BN4 1-828)
chain: MPSALAIFTCRPNSHPFQERHVYLDEPIKIGRSVARCRPAQNNATFDCKVLSRNHALVWFDHKTGKFYLQDTKSSNGTFINSQRLSRGSEESPPCEILSGDIIQFGVDVTENTRKVTHGCIVSTIKLFLPDGMEARLRSDVIHAPLPSPVDKVAANTPSMYSQELFQLSQYLQEALHREQMLEQKLATLQRLLAITQEASDTSWQALIDEDRLLSRLEVMGNQLQACSKNQTEDSLRKELIALQEDKHNYETTAKESLRRVLQEKIEVVRKLSEVERSLSNTEDECTHLKEMNERTQEELRELANKYNGAVNEIKDLSDKLKVAEGKQEEIQQKGQAEKKELQHKIDEMEEKEQELQAKIEALQADNDFTNERLTALQVRLEHLQEKTLKECSSLEHLLSKSGGDCTFIHQFIECQKKLIVEGHLTKAVEETKLSKENQTRAKESDFSDTLSPSKEKSSDDTTDAQMDEQDLNEPLAKVSLLKDDLQGAQSEIEAKQEIQHLRKELIEAQELARTSKQKCFELQALLEEERKAYRNQVEESTKQIQVLQAQLQRLHIDTENLREEKDSEITSTRDELLSARDEILLLHQAAAKVASERDTDIASLQEELKKVRAELERWRKAASEYEKEITSLQNSFQLRCQQCEDQQREEATRLQGELEKLRKEWNALETECHSLKRENVLLSSELQRQEKELHNSQKQSLELTSDLSILQMSRKELENQVGSLKEQHLRDSADLKTLLSKAENQAKDVQKEYEKTQTVLSELKLKFEMTEQEKQSITDELKQCKNNLKLLREKGNNKPWPWMPMLAALVAVTAIVLYVPGLARASP
B2: CTTNBP2NL, endogenous (protein, UniProt Q9P2B4 1-639)
chain: MNLEKLSKPELLTLFSILEGELEARDLVIEALKAQHRDTFIEERYGKYNISDPLMALQRDFETLKEKNDGEKQPVCTNPLSILKVVMKQCKNMQERMLSQLAAAESRHRKVILDLEEERQRHAQDTAEGDDVTYMLEKERERLTQQLEFEKSQVKKFEKEQKKLSSQLEEERSRHKQLSSMLVLECKKATNKAAEEGQKAGELSLKLEKEKSRVSKLEEELAAERKRGLQTEAQVEKQLSEFDIEREQLRAKLNREENRTKTLKEEMESLKKIVKDLEASHQHSSPNEQLKKPVTVSKGTATEPLMLMSVFCQTESFPAERTHGSNIAKMTNTGLPGPATPAYSYAKTNGHCDPEIQTTRELTAGNNVENQVPPREKSVALAQEKPVENGGCPVGIETPVPMPSPLSSSGSSLSPSSTASSSLTSSPCSSPVLTKRLLGSSASSPGYQSSYQVGINQRFHAARHKFQSQADQDQQASGLQSPPSRDLSPTLIDNSAAKQLARNTVTQVLSRFTSQQGPIKPVSPNSSPFGTDYRNLANTANPRGDTSHSPTPGKVSSPLSPLSPGIKSPTIPRAERGNPPPIPPKKPGLTPSPSATTPLTKTHSQAASLTTAEDLASSCSSNTVVANGKDVELLLPTSS
B3: SIKE1, endogenous (protein, UniProt Q9BRV8 1-207)
chain: MSCTIEKILTDAKTLLERLREHDAAAESLVDQSAALHRRVAAMREAGTALPDQYQEDASDMKDMSKYKPHILLSQENTQIRDLQQENRELWISLEEHQDALELIMSKYRKQMLQLMVAKKAVDAEPVLKAHQSHSAEIESQIDRICEMGEVMRKAVQVDDDQFCKIQEKLAQLELENKELRELLSISSESLQARKENSMDTASQAIK
B4: STRN4, endogenous (protein, UniProt Q9NRL3 1-753)
chain: T1 sequence
B5: STRN3, endogenous (protein, UniProt Q13033 1-797)
chain: MDELAGGGGGGPGMAAPPRQQQGPGGNLGLSPGGNGAAGGGGPPASEGAGPAAGPELSRPQQYTIPGILHYIQHEWARFEMERAHWEVERAELQARIAFLQGERKGQENLKKDLVRRIKMLEYALKQERAKYHKLKYGTELNQGDLKMPTFESEETKDTEAPTAPQNSQLTWKQGRQLLRQYLQEVGYTDTILDVRSQRVRSLLGLSNSEPNGSVETKNLEQILNGGESPKQKGQEIKRSSGDVLETFNFLENADDSDEDEENDMIEGIPEGKDKHRMNKHKIGNEGLAADLTDDPDTEEALKEFDFLVTAEDGEGAGEARSSGDGTEWDKDDLSPTAEVWDVDQGLISKLKEQYKKERKGKKGVKRANRTKLYDMIADLGDDELPHIPSGIINQSRSASTRMTDHEGARAEEAEPITFPSGGGKSFIMGSDDVLLSVLGLGDLADLTVTNDADYSYDLPANKDAFRKTWNPKYTLRSHFDGVRALAFHPVEPVLVTASEDHTLKLWNLQKTVPAKKSASLDVEPIYTFRAHIGPVLSLAISSNGEQCFSGGIDATIQWWNMPSPSVDPYDTYEPNVLAGTLVGHTDAVWGLAYSGIKNQLLSCSADGTVRLWNPQEKLPCICTYNGDKKHGIPTSVDFIGCDPAHMVTSFNTGSAVIYDLETSQSLVILSSQVDSGLQSNNHINRVVSHPTLPVTITAHEDRHIKFFDNKTGKMIHSMVAHLDAVTSLAVDPNGIYLMSGSHDCSIRLWNLDSKTCVQEITAHRKKLDESIYDVAFHSSKAYIASAGADALAKVFV

Results are given in words; binding and its absence hold for the method and conditions named. Binding seen in cells or lysates may run through a third protein. Here binding means that the protein was enriched with, or labelled near, the bait; the list need not be complete.

One test addresses T1, STRN4, endogenous (human (endogenous in HEK TER, IMR90)). In words: affinity purification with mass spectrometry; endogenous STRN4 isolated with STRN4 antibody crosslinked to protein A agarose from extracts of HEK TER cells expressing SV40 ST or GFP, overnight at 4C, washes with 300 mM NaCl; MudPIT.
For B1, the binding entry is “binds”.

For B2, the binding result was “binds”.

On to B3, for which the binding entry was “binds”.

The next test has the same target. The test is described as above. This is another data set of the same source.
In the case of “mitogen-activated protein kinase kinase kinase kinase 4 (MAP4K4), endogenous (from UniProt O95819 1-1239)”, the binding result is given as “binds”.

As to “SV40 Small T antigen as expressed in HEK TER ST cells (from UniProt P03081 1-174)”, the binding entry was “binds”.

For the molecule “PP2A C (catalytic) subunit, endogenous (from UniProt P67775 1-309)”, the binding result is listed as “binds”.

A further test has as its target NTAP-MAP4K4 (N-terminal Flag-HA tagged MAP4K4) (human) (UniProt O95819). In words: affinity purification with mass spectrometry; FLAG immunoprecipitation of NTAP-MAP4K4 from combined extracts of SILAC-encoded HEK TER cells expressing ST or GFP; two independent IPs.
“PP2A Aα subunit, endogenous (from UniProt P30153 1-589)”: the binding result is “binds”.

Consider B4, for which the binding result is recorded as “binds”.

B5: the binding entry was “binds”.

Values taken from article PMC6984821.
